These are yes or no findings as the source states them, for the method shown. A result given as binding can be weak or reduced; the word gives no strength.

This test addresses PscA (Chloracidobacterium thermophilum). Kind of test: cryo-EM structure; CabRCL (larger form with PscB and PscZ), native complex purified from C. thermophilum membranes in Triton X-100; 2.61 Å global, cytoplasmic region ~3.5 to ~5.0 Å; 20 mM Tris-HCl pH 7.6, 10 mM ascorbic acid, 0.03% Triton X-100; both purified.

B1: PscB (protein, UniProt G2LDR7 1-179)
chain: MKGKVTMAAEEKAETTNGAPAETPALAPAKAAAKAAAKAPAKAAAKAAPPPIPGPPSRLSRPKTAAPKKKRERQIYTIIEELCIGCGFCTDECPPKVNAILPRDVEAVLDGGETYWIDQTRCISCSLCFVAGTCPTDAVVFTEGGVSRTQYMEDYLHIEMVDEPYWRQRNELSRIGSIL
As for B1, the binding result is on record as “binds weakly”.
